## Results of single-concentration screens

Source: ChEMBL document CHEMBL3988442, “University of Dundee, Small-Polar-MMV Screening Library” (2021).

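Phenotypic screen: M. tuberculosis growth, cholesterol and DPPC medium, 4 days; the read-out is not stated. Compounds at 50 µM. Direction is inferred from retests: higher values go with more growth inhibition. Of about 69,000 compounds tested this way, about 370 (0.54%) reached 50% or more in at least one test.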

The filed quantity is “Percent Effect” (%). The record does not define 0% and 100%; most values in the screen are far below 50% and negative numbers occur (in some assays of this library far below -100). This is an unselected part of the compounds tested. Two or more numbers in one place are separate tests of the same structure; such repeats can differ widely.

structure,Percent Effect
O=C(O)C(F)(F)F.[H][C@@]12CN(C(=O)NCc3ccccc3)CCC[C@]1(C(=O)O)CN(C(C)C)C2,7.942
CN1CCCC(c2nccnc2-c2cccc(C(F)(F)F)c2)C1 (stereo not drawn),9.365 & -3.269
O=C(O)C(F)(F)F.[H][C@@]12COC[C@]1([H])[C@@H](OC)CN2Cc1ccc(CC)o1,-2
COC(=O)CC(c1ccc(OC)c(OC)c1)c1oc(C)cc(=O)c1O (stereo not drawn),-10.98
Cc1ccc(NC2CCN(C(=O)c3cscn3)CC2)nn1,-2.635
[H][C@@]12CCC(=O)N(CCC3=CCCCC3)[C@]1([H])CCN(S(C)(=O)=O)C2,-0.9164 & -21.6
O=C(Nc1ccc(=O)n(Cc2ccccc2Cl)c1)C1CC1,-3.466
[H][C@@]12CN(C(=O)c3cccn3C)C[C@]1([H])C(=O)N(CC1CC1)C2,-15.94
Fc1ccc(C2CCCN2Cc2nc(Cc3ccccc3F)no2)cc1 (stereo not drawn),-19.55
CC(C)(C)OC(=O)CNC(=O)CCc1nnc(-c2ccsc2)o1,-5.128
Cc1ccc(-c2ccc(CC3NCCN(C)C3=O)cc2)cc1.Cl (stereo not drawn),-31.37
O=C(O)C(F)(F)F.[H][C@@]12COC[C@]1(CNC(=O)N(C)C)CN(Cc1cc(C)on1)C2,-13.06
O=C(O)C(F)(F)F.O=C(c1ccoc1)N1CCC2(CC1)COC(COc1ccccn1)C2 (stereo not drawn),-5.338 & -4.191
CCN1CCC(CC(=O)NCC(O)c2cccc(OC)c2)CC1 (stereo not drawn),-9.401 & -1.756
CC1c2ncc(Cn3cncn3)n2CCN1C(=O)Cc1cccs1 (stereo not drawn),16.26
Cn1cc(CN2CCCC3(CCN(Cc4ccncc4)C3=O)C2)cn1 (stereo not drawn),-15.34
CCC(CO)N(Cc1ccco1)C(=O)c1ccccc1SC (stereo not drawn),-18.56
Cc1cc(C)n(CC(=O)N2CCC(c3cc4cccnc4[nH]3)CC2)n1,-25.15
Cc1cnn(CC2CCCN2CC(=O)Nc2nccs2)c1 (stereo not drawn),-2.152
O=S(=O)(NCCNc1cc(-n2cccc2)ncn1)c1cccs1,25.84
CN1CCC(CNC(=O)c2ccc3cccc(Cl)c3n2)C1 (stereo not drawn),12.88
Cc1cnc(Nc2cccc(C3CCCN3Cc3cn(C)nc3C)n2)s1 (stereo not drawn),17.67 & 0.07111
CC(C)c1nnc2n1CCN(Cc1csc(CC(=O)N(C)C)n1)C2,-48.04
Cc1cnn(-c2ccc(C(=O)N3CCN(C)CC3C)cc2)c1 (stereo not drawn),-19.21
CN(CCn1ccc2ccccc21)C(=O)Cc1nnn[nH]1,-3.071
Cc1ccsc1CN(CCCN(C)C)Cc1ccccn1,2.686
O[C@H]1CCN(CC2CCOC2)[C@H]1Cc1ccncc1 (stereo partly drawn),22.12
Cc1ccc2oc(C(=O)N3CCCC(n4nc(C)cc4C)C3)cc2n1 (stereo not drawn),9.314
COCCCn1cnnc1CNC(=O)c1[nH]c2c(C)cc(C)cc2c1C,11.74
Cn1cc(CN2CCCC(CCCc3ccccn3)(C(N)=O)C2)cn1 (stereo not drawn),-6.022
[H][C@]12CC[C@]([H])(CN(Cc3[nH]cnc3C)C1)N(C(=O)CCc1cccnc1)C2,-10.08
c1cc(C2CCCN2CC2CC2)n[nH]1 (stereo not drawn),4.125
CCC(=O)Nc1cccc(OCC(=O)N(C)CCCC2CCCO2)c1 (stereo not drawn),3.024
CO[C@H]1COC[C@@H]1NC(=O)C1(Oc2ccc(Cl)cc2)CCNCC1,-13.18
Cc1cc(CSc2nc(=O)ccn2C(C)C)no1,-6.248
O=C(O)C(F)(F)F.O=C(c1ccccn1)N1CCOC2(COCCN(Cc3cc[nH]n3)C2)C1 (stereo not drawn),4.909
CC(C)=CCN(C)C1CCCN(Cc2noc(C)n2)C1 (stereo not drawn),-4.93
Cn1cnc(S(=O)(=O)N2CCN(CC3CC3)c3ncccc3C2)c1.O=C(O)C(F)(F)F.O=C(O)C(F)(F)F,0.5337
Cc1ccc(CNC(CN2CCN(C)CC2)c2ccccc2)cc1C (stereo not drawn),22.67
CN(CC(=O)Nc1nc2c(s1)CCC2)C(=O)c1cccs1,20.71
O=C1NCCN2CCN(C(=O)NCCc3ccccc3)CC12 (stereo not drawn),-14.18
CC(=O)N1CCC(c2noc(C3CCC(=O)N3)n2)CC1 (stereo not drawn),-2.434 & -20.55
Cc1ccc(Cl)cc1N1CCC(CNC(=O)Cn2cccn2)C1 (stereo not drawn),-13.6
Cl.NC(CC1CCCC1)c1ccccc1 (stereo not drawn),1.854
Cc1ccsc1C(=O)N1CC[C@@H](N(C)C)[C@@H]1Cc1cnn(C)c1.O=C(O)C(F)(F)F,-4.423 & 4.24
NC(=O)C1(Cc2ccc(-c3ccccc3)cc2)CCCNC1 (stereo not drawn),46.85
O=C1NCCN1C1CCN(Cc2nc(-c3ccoc3)no2)CC1,-3.683
COC(=O)CCCNC(=O)c1cc(COc2cncc(Cl)c2)on1,-2.735 & 4.521
CN(C)Cc1cccc(-c2cccnc2C(=O)NCc2ccco2)c1,-4.916 & -7.736
COCC(NC(=O)c1ccc(O)nc1)c1ccc(C)o1 (stereo not drawn),-18.52 & 4.846
O=C(C1CCOCC1)N1C[C@@H](F)[C@@H](OCc2nc3cc(F)ccc3[nH]2)C1,-32.06
Cn1nc(C2CCCC2)c(-c2ccc3c(c2)OCO3)c1N,18.51
C[C@]1(O)CCN(Cc2cncs2)C[C@@H]1Oc1cccc(F)c1,-14.48
OC1(CN2CCOC(Cn3cncn3)C2)CCCCC1 (stereo not drawn),-15.88
COCC(=O)N1CCN(C(=O)C2CCCCC2)[C@@H](C(=O)OC)C1,-9.527
COc1ccc(C(C)Nc2nc3c(C)nn(C)c3c(=O)n2C)cc1 (stereo not drawn),-18.98
CC(C(=O)N1CCCN(c2ncccc2C#N)CC1)n1cncn1 (stereo not drawn),-2.256
CC[C@@H](c1ccccc1)n1c(CN)n[nH]c1=O,-0.5335
O=C1CCC2(CCN(Cc3ccc(F)cc3Cl)CC2)CN1CCO,-10.73 & -3.527

The last 6 entries again:

{"structure": "OC1(CN2CCOC(Cn3cncn3)C2)CCCCC1", "stereo": "stereo not drawn", "Percent Effect": -15.88}
{"structure": "COCC(=O)N1CCN(C(=O)C2CCCCC2)[C@@H](C(=O)OC)C1", "Percent Effect": -9.527}
{"structure": "COc1ccc(C(C)Nc2nc3c(C)nn(C)c3c(=O)n2C)cc1", "stereo": "stereo not drawn", "Percent Effect": -18.98}
{"structure": "CC(C(=O)N1CCCN(c2ncccc2C#N)CC1)n1cncn1", "stereo": "stereo not drawn", "Percent Effect": -2.256}
{"structure": "CC[C@@H](c1ccccc1)n1c(CN)n[nH]c1=O", "Percent Effect": -0.5335}
{"structure": "O=C1CCC2(CCN(Cc3ccc(F)cc3Cl)CC2)CN1CCO", "Percent Effect": "-10.73 & -3.527"}